The values that follow come from patent US20070099247A1.

The target in experiment [1] is Streptavidin (UniProt P22629). Kind of experiment: flow cytometry. In general terms: A flow cytometer gives signals particle by particle.
For experiment [2], the target named is Streptavidin (UniProt P22629). Kind of experiment: selected and sequenced clones, OmpX loop 2 display.
Experiment [3] deals with Streptavidin (UniProt P22629). The experiment can be described thus: clones isolated by MACS and FACS.
For experiment [4], the target named is Streptavidin (UniProt P22629). Kind of experiment: selected and sequenced clones.

No constants are given. Whether binding was seen depends on the method and setting. Some entries that bind do so weakly or less than the wild type.

ICSYVMYTTCFLRVY [SEQ ID NO 234]: the binding result in experiment [1] was “binds”. The same measure, in the same setting: the result for RLEICQNVCYYLGTL [SEQ ID NO 232] reads “binds”. Regarding CMIICQNVCYRKC [SEQ ID NO 277], the binding result in experiment [2] is reported as “binds”. For ADTICWYVCTISVHA [SA-11], the binding result in experiment [3] is “binds”.

YWVCMNVCMYYTARQ [SA-5]: in experiment [3], the binding result is “binds”. For IMMECFYVCTIANTQ [SEQ ID NO 245], the binding entry in experiment [4] is recorded as “binds”.

Regarding LPVWCVMHVCLTSSR [SEQ ID NO 239], the binding result in experiment [4] is recorded as “binds”. In the case of RLEICQNVCYYLGTL [SEQ ID NO 235], the binding entry in experiment [4] was “binds”. For LCCHPQVCASAGYYACY [SEQ ID NO 273], in experiment [2], the binding result is “binds”. NEWYCQNVCERMPHS [SA-7]: in experiment [3], the binding entry was “binds”.

Take PTLICMNVCFYDQ [SEQ ID NO 281]: the binding entry in experiment [2] is on record as “binds”.

On to LCCHPQNCVSFRHVECR [SEQ ID NO 274], for which the binding result in experiment [2] is given as “binds”. Consider ADTICWYVCTISVHA [SEQ ID NO 244], for which, in experiment [4], the binding result was “binds”. As to LPVWCVMHVCLTSSR [SA-6], the binding result in experiment [3] is “binds”. Regarding ICCHPQVCSGLNRFRCG [SEQ ID NO 270], the binding entry in experiment [2] is “binds”. For NEWYCQNVCERMPHS [SEQ ID NO 241], the binding result in experiment [4] is listed as “binds”. Regarding ACCHPQVCVMALPYHCL [SEQ ID NO 272], the binding entry in experiment [2] is reported as “binds”. For the molecule SKWICQNVCYPGL [SEQ ID NO 279], the binding entry in experiment [2] is “binds”.

Regarding TWVQCTMVCYGMSTT [SEQ ID NO 242], the binding result in experiment [4] was “binds”. With VTSLCMNVCYSLTTY [SA-4], in experiment [3], the binding entry is listed as “binds”. For the molecule ICSYVMYTTCFLRVY [SEQ ID NO 237], the binding entry in experiment [4] is “binds”. Take QVKLHPMAPVVPSHW [SEQ ID NO 243]: the binding entry in experiment [4] is given as “binds”. Regarding SHWFCVNVCFRIQ [SEQ ID NO 282], the binding entry in experiment [2] is “binds”. For TVLICMNICWTGETQ [SEQ ID NO 236], the binding result in experiment [4] is reported as “binds”. Consider QSLVCQNVCWMRE [SEQ ID NO 276], for which the binding result in experiment [2] is on record as “binds”. For the molecule ICCHPQWCGLTVWWPCK [SEQ ID NO 275], the binding entry in experiment [2] is given as “binds”.

For the molecule IMMECFYVCTIANTQ [SA-8], the binding entry in experiment [3] was “binds”. Take WCCHPQVCHRAMVRNCI [SEQ ID NO 271]: the binding result in experiment [2] is listed as “binds”. TWVQCTMVCYGMSTT [SA-9]: the binding result in experiment [3] is listed as “binds”. Consider TYSWCANVCMHYS [SEQ ID NO 283], for which the binding result in experiment [2] is given as “binds”. Same read-out and setting: with GTLVCMNFCYLSK [SEQ ID NO 280] the entry was “binds”. Regarding YWVCMNVCMYYTARQ [SEQ ID NO 238], the binding result in experiment [4] is “binds”.

Consider ICCHPQVCAWNRVFLCK [SEQ ID NO 269], for which the binding result in experiment [2] is “binds”. On to VTSLCMNVCYSLTTY [SEQ ID NO 240], for which the binding result in experiment [4] is “binds”. Take YCCHPQVCFLGHRAACP [SEQ ID NO 267]: in experiment [2], the binding entry is reported as “binds”. Same read-out and setting: the result for KALVCQNVCYTMS [SEQ ID NO 278] reads “binds”; that for TRLICANLCWYAE [SEQ ID NO 284], “binds”; that for WCCHPQVCSLSLAYKCQ [SEQ ID NO 268], “binds”. As to TVLICMNICWTGETQ [SEQ ID NO 233], the binding result in experiment [1] is listed as “binds”. As for SITICWYTCMVQKTA [SA-10], in experiment [3], the binding entry is reported as “binds”.
